{
  "source": "paper PMC10088926",
  "about": "“Synthesis, DFT calculations, and anti-proliferative evaluation of pyrimidine and selenadiazolopyrimidine derivatives as dual Topoisomerase II and HSP90 inhibitors” (Journal of Enzyme Inhibition and Medicinal Chemistry, 2023)",
  "test_system": "WI-38 (fibroblast-like foetal lung cell line)",
  "assay": "In vitro cytotoxicity against normal WI-38 cell line",
  "conditions": "fold versus doxorubicin",
  "note": "“Also recorded” adds a separate entry of the source.",
  "data": [
    {"compound": "CC1(C)CC(=O)C=C(Nc2c(N)[nH]c(=O)[nH]c2=O)C1", "note": "[Compound 3a, 6-Amino-5-((5,5-dimethyl-3-oxocyclohex-1-en-1-yl)amino)pyrimidine-2,4(1H,3H)-dione]", "values": [
      {"measurement": "increase of the inhibitory concentration on normal WI-38 cells relative to doxorubicin", "result": "four times; also recorded: four-fold"}
    ]}
  ]
}
